These are yes or no findings as the source states them, for the method shown. In cells and extracts the contact can be indirect. Some entries that bind do so weakly or less than the wild type.
Experiments:
[1] = molecular target: large-conductance Ca2+- and voltage-dependent BK potassium channel (KCa1.1) (human (endogenous in LNCaP)) (UniProt Q12791); experiment: co-IP; cell extract (500 µg; lysis buffer Triton X-100 1%, Na deoxycholate 1%, NaCl 150 mM, PO4NaK 10 mM, pH 7.2) incubated overnight at 4°C with protein A/G PLUS agarose beads carrying 1 µg anti-BK or anti-α1H antibody; Western blot with the same antibodies
[2] = molecular target: Cav3.2 T-type voltage-dependent calcium channel (α1H) (human) (UniProt O95180); experiment: as above

Protein sequences, listed by entry. Tags and fused reporters are not part of them.
UniProt Q12791: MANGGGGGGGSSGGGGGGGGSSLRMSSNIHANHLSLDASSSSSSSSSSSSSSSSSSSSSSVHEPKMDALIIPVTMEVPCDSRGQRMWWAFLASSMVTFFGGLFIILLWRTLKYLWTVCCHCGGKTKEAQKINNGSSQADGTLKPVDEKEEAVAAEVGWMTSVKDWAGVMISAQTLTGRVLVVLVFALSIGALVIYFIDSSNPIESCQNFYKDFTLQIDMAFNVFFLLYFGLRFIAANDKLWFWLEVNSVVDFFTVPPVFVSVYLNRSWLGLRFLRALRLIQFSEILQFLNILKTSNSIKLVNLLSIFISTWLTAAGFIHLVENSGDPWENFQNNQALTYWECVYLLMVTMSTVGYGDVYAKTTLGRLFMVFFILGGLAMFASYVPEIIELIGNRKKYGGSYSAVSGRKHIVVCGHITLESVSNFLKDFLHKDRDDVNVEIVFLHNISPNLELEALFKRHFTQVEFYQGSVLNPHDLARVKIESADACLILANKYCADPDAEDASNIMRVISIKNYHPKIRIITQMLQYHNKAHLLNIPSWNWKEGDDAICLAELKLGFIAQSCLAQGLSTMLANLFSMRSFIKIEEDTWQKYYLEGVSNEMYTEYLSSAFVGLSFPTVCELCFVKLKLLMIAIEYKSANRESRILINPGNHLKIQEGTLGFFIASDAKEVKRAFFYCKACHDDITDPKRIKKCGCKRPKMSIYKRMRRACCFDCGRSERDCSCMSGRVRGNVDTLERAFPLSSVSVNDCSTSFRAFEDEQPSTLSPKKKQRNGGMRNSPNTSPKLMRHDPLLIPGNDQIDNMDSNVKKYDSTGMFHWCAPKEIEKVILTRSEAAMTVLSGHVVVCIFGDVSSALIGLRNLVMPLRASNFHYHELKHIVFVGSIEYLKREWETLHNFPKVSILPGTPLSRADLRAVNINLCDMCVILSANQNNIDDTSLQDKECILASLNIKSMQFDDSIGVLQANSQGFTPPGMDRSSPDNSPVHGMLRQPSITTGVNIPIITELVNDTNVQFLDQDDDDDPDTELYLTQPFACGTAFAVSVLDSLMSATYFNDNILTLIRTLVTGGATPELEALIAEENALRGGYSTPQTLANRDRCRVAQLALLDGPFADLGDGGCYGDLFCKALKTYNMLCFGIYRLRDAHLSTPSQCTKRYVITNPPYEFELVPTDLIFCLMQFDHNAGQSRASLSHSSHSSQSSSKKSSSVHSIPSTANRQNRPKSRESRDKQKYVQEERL
UniProt O95180: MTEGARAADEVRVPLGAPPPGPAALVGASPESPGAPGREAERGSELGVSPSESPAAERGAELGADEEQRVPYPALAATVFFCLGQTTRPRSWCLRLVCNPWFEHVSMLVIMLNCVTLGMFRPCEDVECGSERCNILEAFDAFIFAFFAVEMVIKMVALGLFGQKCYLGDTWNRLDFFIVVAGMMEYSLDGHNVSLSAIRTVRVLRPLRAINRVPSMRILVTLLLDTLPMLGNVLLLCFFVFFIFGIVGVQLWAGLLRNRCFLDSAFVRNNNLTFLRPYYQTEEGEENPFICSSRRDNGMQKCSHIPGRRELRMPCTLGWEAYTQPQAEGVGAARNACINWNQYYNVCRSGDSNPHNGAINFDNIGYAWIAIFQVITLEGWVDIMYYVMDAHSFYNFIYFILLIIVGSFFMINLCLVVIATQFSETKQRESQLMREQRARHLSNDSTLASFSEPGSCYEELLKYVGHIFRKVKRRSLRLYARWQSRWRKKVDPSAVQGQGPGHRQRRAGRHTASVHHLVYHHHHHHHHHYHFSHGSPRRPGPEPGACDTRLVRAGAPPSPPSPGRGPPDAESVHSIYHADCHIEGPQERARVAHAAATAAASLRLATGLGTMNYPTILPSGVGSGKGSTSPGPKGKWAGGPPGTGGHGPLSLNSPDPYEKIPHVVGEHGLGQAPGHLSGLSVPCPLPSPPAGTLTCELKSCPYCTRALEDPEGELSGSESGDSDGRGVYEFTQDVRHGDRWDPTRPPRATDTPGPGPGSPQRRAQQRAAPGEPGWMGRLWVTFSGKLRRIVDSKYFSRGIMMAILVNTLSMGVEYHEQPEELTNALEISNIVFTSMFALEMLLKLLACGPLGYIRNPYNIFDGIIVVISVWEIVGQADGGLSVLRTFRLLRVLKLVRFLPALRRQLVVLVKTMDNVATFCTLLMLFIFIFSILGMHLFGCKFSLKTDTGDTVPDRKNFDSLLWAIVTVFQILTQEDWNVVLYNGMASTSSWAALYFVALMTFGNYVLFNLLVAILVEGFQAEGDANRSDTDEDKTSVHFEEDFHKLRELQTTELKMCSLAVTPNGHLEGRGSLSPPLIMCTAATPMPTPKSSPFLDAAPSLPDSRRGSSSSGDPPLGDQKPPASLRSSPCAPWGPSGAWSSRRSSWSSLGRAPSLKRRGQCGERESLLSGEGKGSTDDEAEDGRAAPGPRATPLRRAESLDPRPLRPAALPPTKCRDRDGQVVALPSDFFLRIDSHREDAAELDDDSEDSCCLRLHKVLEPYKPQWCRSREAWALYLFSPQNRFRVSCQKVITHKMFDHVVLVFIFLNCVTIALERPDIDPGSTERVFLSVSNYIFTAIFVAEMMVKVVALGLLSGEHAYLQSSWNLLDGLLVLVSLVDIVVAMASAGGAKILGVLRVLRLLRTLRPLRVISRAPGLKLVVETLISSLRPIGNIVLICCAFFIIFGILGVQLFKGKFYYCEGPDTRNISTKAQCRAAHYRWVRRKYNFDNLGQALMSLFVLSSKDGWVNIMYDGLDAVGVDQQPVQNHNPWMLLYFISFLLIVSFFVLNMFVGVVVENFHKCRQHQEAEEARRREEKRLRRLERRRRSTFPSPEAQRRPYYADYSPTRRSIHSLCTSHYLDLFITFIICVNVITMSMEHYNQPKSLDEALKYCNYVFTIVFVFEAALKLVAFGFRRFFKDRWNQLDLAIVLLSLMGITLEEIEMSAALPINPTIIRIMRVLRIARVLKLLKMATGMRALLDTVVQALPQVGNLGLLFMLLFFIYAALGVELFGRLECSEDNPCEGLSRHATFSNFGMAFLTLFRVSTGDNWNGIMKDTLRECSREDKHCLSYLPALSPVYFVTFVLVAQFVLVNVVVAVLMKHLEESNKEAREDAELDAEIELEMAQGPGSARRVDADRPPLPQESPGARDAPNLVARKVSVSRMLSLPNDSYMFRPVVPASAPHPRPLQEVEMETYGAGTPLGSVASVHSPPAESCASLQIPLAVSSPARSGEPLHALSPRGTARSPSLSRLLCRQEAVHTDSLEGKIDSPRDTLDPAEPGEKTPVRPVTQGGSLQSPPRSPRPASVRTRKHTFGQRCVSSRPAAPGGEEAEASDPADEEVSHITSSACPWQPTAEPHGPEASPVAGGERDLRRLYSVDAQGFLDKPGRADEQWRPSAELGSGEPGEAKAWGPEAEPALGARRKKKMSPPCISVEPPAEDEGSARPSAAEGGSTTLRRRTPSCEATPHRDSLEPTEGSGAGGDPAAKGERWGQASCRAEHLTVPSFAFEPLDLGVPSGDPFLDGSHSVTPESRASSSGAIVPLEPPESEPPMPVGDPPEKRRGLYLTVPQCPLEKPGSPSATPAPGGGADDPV

binding [1]	binding [2]	Substance
binds	–	Cav3.2 T-type voltage-dependent calcium channel (α1H) (from UniProt O95180 1-2353)
–	binds	large-conductance Ca2+- and voltage-dependent BK potassium channel (KCa1.1) (from UniProt Q12791 1-1236)

From paper PMC3773341 (Biology Open, 2013)
